Test results taken from PubChem BioAssay AID1508600 (Functional Genomics Laboratory (NCATS/FGL), 2020).
The campaign covered roughly 53,000 sequences. About 3,700 (7%) were called active.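 The calls were made as follows: active = gene knockdowns whose robust z-score for IL-1 alpha signal is at least 2 or at most -2, so actives lie on both sides; inactive = the rest.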 The list shows a part of the results.

assay: Components of the Cytosolic LPS Sensing Pathway: Gene Identification via Genome-wide siRNA Screen; conditions: RAW264.7 macrophages, IL-1a HTRF, actives lie on both sides, screened at 100 nM (by protocol), cells primed 5 h with Pam3CSK4 first;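 also: robust z of the log signal after scaling to non-targeting control siRNA wells of the plate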
Outline: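 RAW264.7 mouse macrophages reverse-transfected with single siRNAs (100 nM final) for 48h, primed with Pam3CSK4 for 5 hours, then transfected with LipidA for 24 hour. Supernatant IL-1a read by HTRF; values normalized to negative-control median, log-transformed robust z-scores.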

Q: With GCAUAAGAAGCAACGUGUGTT against Strn4 as the sequence, how does the z-score read?
A: inactive: 0.7

Q: Which z-score does the source give for GGAGCGAGAUACUCCUAAATT against Epha6 here?
A: inactive: -0.308

Q: With GGUCAAUGGAGUAGAUUUATT against Pard3 as the sequence, how does the z-score read?
A: active: 2.24

Q: With CACGACCUAGGUGUGACCATT against Arrdc2 as the sequence, how does the z-score read?
A: active: -2.31

Q: For CCCUCGAGUGAUCAUUUUGTT against Opcml, which z-score is on record?
A: inactive: -0.524

Q: With GGCUAUGGAGCACUCACAATT against Pot1b as the sequence, how does the z-score read?
A: inactive: -0.177

Q: For GCUAGCAAGUGAGAUGGAGTT against Mbd3l1, which z-score is on record?
A: inactive: 1.58

Q: For GCUAUGACGAUUUCCGUUCTT against Arhgap33, which z-score is on record?
A: inactive: 0.915

Q: With GGUUGACAUCGACCAAUCATT against Klhl1 as the sequence, how does the z-score read?
A: inactive: -1.36

Q: Which z-score does the source give for GCCUACAAGCCAUGAACAATT against Mybbp1a here?
A: inactive: 1.27

Q: With GCCUCAGCAUUACCACUAUTT against Pof1b as the sequence, how does the z-score read?
A: inactive: -1.86

Q: With GGUUGUAUGUUGUGUGUUUTT against Cyrib as the sequence, how does the z-score read?
A: active: 2.36

Q: Which z-score does the source give for GUCCCAACUCCGCUUUGUUTT against Vmn1r38 here?
A: inactive: 1.01

Q: Which z-score does the source give for GGAGACUUCAGUGCCUCUUTT against Slc16a11 here?
A: active: 2.45

Q: With GGAUUACACACCUACGAUCTT against Taf10 as the sequence, how does the z-score read?
A: inactive: -1.63

Q: With GGCCAGAGAAGAUUACUUUTT against Ajuba as the sequence, how does the z-score read?
A: inactive: 1.03

Q: Which z-score does the source give for GGUAUUAUGACUGUAAAGGTT against Endou here?
A: inactive: 0.0412

Q: With CCAAUUUUACCUGACUUCGTT against Enox2 as the sequence, how does the z-score read?
A: inactive: -0.222

Q: For GCUGUCUUUUAUGCAAGCATT against Klf9, which z-score is on record?
A: inactive: 0.466

Q: Which z-score does the source give for GGGCCAAACCCAGAACUAUTT against Sema4g here?
A: inactive: 1.5

Q: With GGCCGAUUGUGAUGAAUUCTT against Depdc1b as the sequence, how does the z-score read?
A: inactive: 0.753

Q: For GCCAUAUGGUGAAGUCCUATT against Suz12, which z-score is on record?
A: inactive: 0.117

Q: Which z-score does the source give for GCCUGGAUUUAAUUUAUGGTT against Sv2a here?
A: inactive: -0.3

Q: For GGGACUGUCCUUUUUGAAATT against Unc119, which z-score is on record?
A: inactive: -0.487

Q: For GGUUGUGACCGCCAUUUCUTT against Adpgk, which z-score is on record?
A: inactive: 1.49

Q: Which z-score does the source give for GGCUAAACACAGAAAGGUCTT against Ccdc40 here?
A: inactive: 0.172

Q: With GAUUAAUAGUGGUUUCUGATT against Olfr1219 as the sequence, how does the z-score read?
A: inactive: -0.219

Q: For GCCUUCUGAUAACCUACUATT against Mefv, which z-score is on record?
A: inactive: -1.87

Q: For GGAAUUGAACGUAGUAGAGTT against Ciao2b, which z-score is on record?
A: inactive: 0.267

Q: For GGUGUUUGGCUACCAUACCTT against Atp13a5, which z-score is on record?
A: inactive: -0.271

Q: Which z-score does the source give for GGGAUGGAAGACGUACAGATT against Alox12e here?
A: inactive: 0.673

Q: Which z-score does the source give for GGGAUACCAUUAAUUAAAGTT against Armh4 here?
A: inactive: -1.2

Q: With UACCCUAGGUCGACUCUCATT against Fcmr as the sequence, how does the z-score read?
A: inactive: -1.48

Q: Which z-score does the source give for GGACUUGUUAUGGCCAUGCTT against Olfr1389 here?
A: inactive: 0.284

Q: Which z-score does the source give for GGAGGAAGACAUUGUGUGUTT against Tnfrsf11b here?
A: inactive: -0.309

Q: With GCACCAGUUACAGAAUGGATT against Zkscan8 as the sequence, how does the z-score read?
A: inactive: 0.873

Q: Which z-score does the source give for GGGCAAUGUGUUUAUGUAUTT against Tmem30a here?
A: inactive: -0.264

Q: For GGUAAACCUUUCUACCUUATT against Cxcr2, which z-score is on record?
A: inactive: 0.675

Q: For GGACUUUGAUAUCAAAGAGTT against Serpina10, which z-score is on record?
A: inactive: -0.778

Q: Which z-score does the source give for CCUACCCUAACCAUUACACTT against Enpp5 here?
A: inactive: -0.267

Q: With GGUUUAUAUCCGUACACCUTT against Sp2 as the sequence, how does the z-score read?
A: inactive: 1.97

Q: For GGAAUUUGGAGCCGACUGCTT against Mdk, which z-score is on record?
A: inactive: -1.38

Q: Which z-score does the source give for CCUAUGAGAAAUGCUGCCCTT against Wfikkn2 here?
A: inactive: 0.637

Q: Which z-score does the source give for CGUUCAACAACAGAGAAAATT against Scnn1g here?
A: inactive: -0.305

Q: For GCAUGUGACCUCGUCUUGCTT against Apbb2, which z-score is on record?
A: inactive: -1.04

Q: Which z-score does the source give for GGAUAUUGUCUUUGUAGAATT against Kap here?
A: inactive: -0.565

Q: For GAGUGGAACCAGAUUCCUCTT against AY074887, which z-score is on record?
A: inactive: -0.4

Q: With GGAUUUUUGCCAGUUAGUATT against Nus1 as the sequence, how does the z-score read?
A: inactive: 0.501

Q: For CCUGACUUCCCGCUAUGAGTT against Ip6k2, which z-score is on record?
A: inactive: 0.56

Q: For GGAGAUUCAGUUCUUCAAUTT against Ndst2, which z-score is on record?
A: inactive: 1.1

Q: Which z-score does the source give for GGCUCAUAAACGACAAAGGTT against Cxcl11 here?
A: inactive: -1.42

Q: For GGUCAAAUCUCAGAUGAAGTT against Kcnab1, which z-score is on record?
A: inactive: 0.917

Q: Which z-score does the source give for GCCGAUCCAUUUUUGGCUCTT against Mlxip here?
A: inactive: 0.86

Q: Which z-score does the source give for GGAGUUUGAAGACUUUUUGTT against Pstpip2 here?
A: inactive: 0.24

Q: For GGCAUGUGAAAUGUAUACCTT against Napb, which z-score is on record?
A: inactive: 1.25

Q: With GGUCACCUCUGCUAACAUCTT against Bpifb1 as the sequence, how does the z-score read?
A: inactive: -0.765

Q: For GAAGGAAGAAUAUUGGCCCTT against Il17rd, which z-score is on record?
A: inactive: -1.88

Q: With GGCUUCUGGUACAUUAUUGTT against Lcn10 as the sequence, how does the z-score read?
A: inactive: -1.23

Q: Which z-score does the source give for GCUGUAUUGAAGGUCCCUUTT against Olfr744 here?
A: inactive: 0.263

Q: With CCAUCUACCAUAAACUGUATT against Spata6 as the sequence, how does the z-score read?
A: inactive: 0.175

Q: With GGUAGCUGAAGAUGGAGAGTT against Abcc10 as the sequence, how does the z-score read?
A: inactive: 0.965

Q: With GGAGUUAGAAACUCAUUUUTT against Ppargc1b as the sequence, how does the z-score read?
A: inactive: 1.5

Q: Which z-score does the source give for CCAAGCAUUAUGAGAUGCUTT against Sec23b here?
A: inactive: 0.749

Q: Which z-score does the source give for GGCAGACAUUGCAUUUCUCTT against Coch here?
A: inactive: -0.654

Q: For GGCUGUUCGUAAUAACCGCTT against Nup85, which z-score is on record?
A: inactive: -0.554

Q: For GGAGUUCUUUUAUGAUAUCTT against Rph3a, which z-score is on record?
A: inactive: 0.276

Q: For CCACAGUGGAUUGAUUGUATT against Nlrp4c, which z-score is on record?
A: inactive: -1.5

Q: Which z-score does the source give for GGUCUUCCUGUCUGAAAUATT against Dock7 here?
A: inactive: 1.82

Q: With GCUUCUAUUGCCAACAUUGTT against Tcp1 as the sequence, how does the z-score read?
A: inactive: 0.247

Q: Which z-score does the source give for CCCGGGUUGGGUGUACAUUTT against Sds here?
A: active: 3.62

Q: For CCAGUUGACAGGUUUGAUCTT against Habp4, which z-score is on record?
A: inactive: -0.255

Q: Which z-score does the source give for GGCUCUAGGAUUCAAAUAUTT against Grid1 here?
A: inactive: 1.21

Q: Which z-score does the source give for “GGCAACUAACAGGAAAAAGTT against 4430402I18Rik” here?
A: inactive: -0.896

Q: With GGAAACACAAGUUCUAGGUTT against Gpx3 as the sequence, how does the z-score read?
A: inactive: 0.735

Q: Which z-score does the source give for CCAUGUUUUUAUAGCUCUUTT against Sidt2 here?
A: inactive: 1.49

Q: For GGGAAAUGUGUGUUAUCUGTT against Rnf126, which z-score is on record?
A: inactive: 1.41

Q: Which z-score does the source give for GCUCCAUCAGCAAUACAAATT against Kdm1a here?
A: inactive: 1.51

Q: Which z-score does the source give for GGUGCUUUGUAAACUGUCUTT against Slc26a11 here?
A: active: -2.99

Q: For GGUGCUAAGCUAGACAUUCTT against Mib1, which z-score is on record?
A: inactive: -0.161

Q: With GCUCUCUACGAUGAGGUCATT against Dera as the sequence, how does the z-score read?
A: inactive: 0.42

Q: Which z-score does the source give for GCCCAACUAAGCAAUAAUATT against Fam216b here?
A: inactive: 0.395

Q: With GCUGUUUCCUGAACAAUUCTT against Tram1 as the sequence, how does the z-score read?
A: inactive: -1.31

Q: For GGAUGCAGUUCAUGACAAUTT against Ythdf1, which z-score is on record?
A: inactive: -1.17

Q: With GGACAUGAUCAAUGAAGUATT against Calm2 as the sequence, how does the z-score read?
A: inactive: -1.37

Q: For CGUUGGUCUUCACUGAUAATT against Frem2, which z-score is on record?
A: inactive: 0.558

Q: For GGCCAUUUUAAAUGGGUCATT against Stx16, which z-score is on record?
A: inactive: -1.44

Q: For GCCCUAAAUCCUUUUAUUATT against Trpc7, which z-score is on record?
A: active: 2.78

Q: With GGAGCACUUGUGGAUCAAUTT against Efhd1 as the sequence, how does the z-score read?
A: inactive: 1.03

Q: With GGAGGUUUCCUUAGGCAAATT against Drd5 as the sequence, how does the z-score read?
A: inactive: 1.23

Q: Which z-score does the source give for CCUUGACAGGACUAUAUUUTT against Pter here?
A: inactive: -0.452

Q: For GGAAAAACAUUCAAGACUCTT against Cenpk, which z-score is on record?
A: inactive: -0.0252

Q: For GGAGCAGAAUGGAGUGCAGTT against Slc6a3, which z-score is on record?
A: inactive: 1.69

Q: For GGCUGAACAGGCAUGAUCATT against Rpap1, which z-score is on record?
A: active: -3

Q: For GGCACAAUUGAUCCUUUUUTT against Syt17, which z-score is on record?
A: inactive: -0.0431

Q: For GGAGGUGUCGGGAUAUCAATT against Ptprm, which z-score is on record?
A: inactive: -0.248

Q: For GUUGAUGGAAACCAUGGAATT against Phf11d, which z-score is on record?
A: inactive: -0.504

Q: With CGAUGUUUUCAUGAACGACTT against Tctex1d2 as the sequence, how does the z-score read?
A: inactive: 0.738

Q: For GGGUUAGGAUACCUCGACUTT against Arnt2, which z-score is on record?
A: active: -2.5

Q: For GGCUGUGGUUGUAUCAUGATT against Scgb2b24, which z-score is on record?
A: inactive: -0.13

Q: With GCAAGAAUCUGCUCUUAGUTT against Tmem164 as the sequence, how does the z-score read?
A: inactive: -0.019

Q: Which z-score does the source give for GGGAUCAGACUGUAUAGACTT against Chchd4 here?
A: inactive: 1.07

Q: With GGAUGACCAAAAGGACAAUTT against Galp as the sequence, how does the z-score read?
A: inactive: 1.09

Q: For GGCAUUUAGCCAAAAGUUCTT against Zfp169, which z-score is on record?
A: inactive: 0.608

Q: With GGUUAUGAAACUGAGAAAGTT against Mid2 as the sequence, how does the z-score read?
A: inactive: -0.0195

Q: For CCAGAGCUACCAAAGUCUATT against Krt39, which z-score is on record?
A: inactive: -0.625

Q: For GGAAACAAAUGAGUGCCUGTT against Bloc1s5, which z-score is on record?
A: active: 2.02

Q: With CCAGAGAAAUAUCGACAAGTT against Rasgrf1 as the sequence, how does the z-score read?
A: inactive: 0.00204

Q: For GGAAGAAGCCUUUUGAGUGTT against Peg3, which z-score is on record?
A: inactive: 1.39
